From publication PMC6697986
No constants are given. Whether binding was seen depends on the method and setting. Binding seen in cells or lysates may run through a third protein. Some entries that bind do so weakly or less than the wild type.

T1: Large tumor suppressor 1 (Lats1) in T47D cells (UniProt O95835)
T1 sequence: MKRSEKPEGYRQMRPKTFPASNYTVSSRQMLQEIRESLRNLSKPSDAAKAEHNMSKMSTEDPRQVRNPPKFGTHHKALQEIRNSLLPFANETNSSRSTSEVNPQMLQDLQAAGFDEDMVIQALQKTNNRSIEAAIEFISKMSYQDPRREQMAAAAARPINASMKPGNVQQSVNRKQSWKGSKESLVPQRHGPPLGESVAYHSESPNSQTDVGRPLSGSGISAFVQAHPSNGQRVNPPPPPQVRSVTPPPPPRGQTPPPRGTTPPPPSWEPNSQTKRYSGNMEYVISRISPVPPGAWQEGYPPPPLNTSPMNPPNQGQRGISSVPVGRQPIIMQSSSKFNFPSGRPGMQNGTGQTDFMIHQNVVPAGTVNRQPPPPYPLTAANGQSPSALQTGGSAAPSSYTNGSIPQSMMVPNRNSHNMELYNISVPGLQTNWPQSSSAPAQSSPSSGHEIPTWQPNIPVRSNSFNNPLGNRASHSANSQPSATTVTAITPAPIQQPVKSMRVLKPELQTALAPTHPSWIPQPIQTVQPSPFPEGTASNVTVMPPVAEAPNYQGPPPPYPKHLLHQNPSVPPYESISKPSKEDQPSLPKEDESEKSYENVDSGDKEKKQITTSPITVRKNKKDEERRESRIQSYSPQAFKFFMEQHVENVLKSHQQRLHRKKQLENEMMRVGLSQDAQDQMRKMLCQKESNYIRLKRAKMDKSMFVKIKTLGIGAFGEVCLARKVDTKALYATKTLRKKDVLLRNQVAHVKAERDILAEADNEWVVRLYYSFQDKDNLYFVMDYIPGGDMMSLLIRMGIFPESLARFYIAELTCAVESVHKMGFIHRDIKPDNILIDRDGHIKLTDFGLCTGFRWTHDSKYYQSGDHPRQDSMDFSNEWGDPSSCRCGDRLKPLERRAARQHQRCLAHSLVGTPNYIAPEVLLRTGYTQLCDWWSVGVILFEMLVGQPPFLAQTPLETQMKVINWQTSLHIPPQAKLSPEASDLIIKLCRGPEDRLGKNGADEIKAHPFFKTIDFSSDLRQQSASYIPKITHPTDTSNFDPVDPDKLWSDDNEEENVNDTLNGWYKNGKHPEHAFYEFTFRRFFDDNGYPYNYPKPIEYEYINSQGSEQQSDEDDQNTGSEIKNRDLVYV

T2: Large tumor suppressor 1 (Lats1) in BT549 cells (UniProt O95835)
T2 sequence: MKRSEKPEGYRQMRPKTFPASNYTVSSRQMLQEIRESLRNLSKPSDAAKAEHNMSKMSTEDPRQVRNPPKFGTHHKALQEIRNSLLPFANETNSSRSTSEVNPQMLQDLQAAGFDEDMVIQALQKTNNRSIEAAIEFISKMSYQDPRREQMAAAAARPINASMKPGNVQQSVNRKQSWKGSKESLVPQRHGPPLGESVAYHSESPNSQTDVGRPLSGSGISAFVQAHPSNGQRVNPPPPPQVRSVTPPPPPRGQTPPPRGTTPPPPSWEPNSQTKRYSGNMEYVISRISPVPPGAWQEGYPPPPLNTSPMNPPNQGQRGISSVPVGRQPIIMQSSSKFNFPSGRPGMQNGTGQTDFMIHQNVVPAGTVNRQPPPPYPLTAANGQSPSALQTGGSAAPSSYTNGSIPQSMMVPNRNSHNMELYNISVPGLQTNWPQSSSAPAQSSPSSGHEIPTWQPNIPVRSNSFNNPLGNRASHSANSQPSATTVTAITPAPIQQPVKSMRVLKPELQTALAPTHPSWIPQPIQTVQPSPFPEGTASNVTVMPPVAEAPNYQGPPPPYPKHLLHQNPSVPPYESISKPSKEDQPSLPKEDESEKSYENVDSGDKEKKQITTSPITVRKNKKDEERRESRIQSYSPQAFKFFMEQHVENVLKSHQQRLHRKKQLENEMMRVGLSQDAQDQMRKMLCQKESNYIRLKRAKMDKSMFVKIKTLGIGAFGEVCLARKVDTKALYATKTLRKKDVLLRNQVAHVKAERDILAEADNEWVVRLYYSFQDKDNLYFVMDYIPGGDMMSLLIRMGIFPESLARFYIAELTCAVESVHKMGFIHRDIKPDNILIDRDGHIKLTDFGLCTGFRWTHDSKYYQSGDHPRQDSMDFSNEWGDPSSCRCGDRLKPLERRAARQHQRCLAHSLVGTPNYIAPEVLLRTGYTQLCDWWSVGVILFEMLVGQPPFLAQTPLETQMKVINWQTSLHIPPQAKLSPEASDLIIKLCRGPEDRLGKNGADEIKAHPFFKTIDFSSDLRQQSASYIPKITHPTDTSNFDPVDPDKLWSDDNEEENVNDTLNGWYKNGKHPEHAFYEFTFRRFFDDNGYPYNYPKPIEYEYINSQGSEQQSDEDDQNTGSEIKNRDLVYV


How the values were obtained:
[1] = molecular target: T1, Large tumor suppressor 1 (Lats1) in T47D cells; test: co-IP; Thermo Scientific Pierce Co-IP kit; extracts of T47D or BT549 cells in lysis buffer (150 mM NaCl, 0.5% NP-40, Tris-HCl pH 8.0, glycerol); IP with anti-Flag or anti-CRABP2 antibody or IgG; Western blot with anti-CRABP2 or anti-Lats1
[2] = molecular target: T2, Large tumor suppressor 1 (Lats1) in BT549 cells; test: as above

binding [1]	binding [2]	Binder
binds	–	Cellular retinoic acid binding protein 2 (CRABP2), endogenous in T47D cells (protein, UniProt P29373 1-138) MPNFSGNWKIIRSENFEELLKVLGVNVMLRKIAVAAASKPAVEIKQEGDTFYIKTSTTVRTTEINFKVGEEFEEQTVDGRPCKSLVKWESENKMVCEQKLLKGEGPKTSWTRELTNDGELILTMTADDVVCTRVYVRE
–	binds	Cellular retinoic acid binding protein 2 (CRABP2), exogenous in BT549 cells (protein, UniProt P29373 1-138) MPNFSGNWKIIRSENFEELLKVLGVNVMLRKIAVAAASKPAVEIKQEGDTFYIKTSTTVRTTEINFKVGEEFEEQTVDGRPCKSLVKWESENKMVCEQKLLKGEGPKTSWTRELTNDGELILTMTADDVVCTRVYVRE
